We go through 1 molecule from ChEMBL document CHEMBL1139298, “Synthesis and biological evaluation of novel 2,4,5-substituted pyrimidine derivatives for anticancer activity” (Bioorg Med Chem Lett, 2009).

The assay deals with A549. The assay is described as follows: Cytotoxicity against human A549 cells […] by SRB assay. Particulars: A549, 72 h. The assay is classed as functional, cell-based.

The molecule `COc1cccc2c1C(=O)c1c(O)c3c(c(O)c1C2=O)C[C@@](O)(C(=O)CO)C[C@@H]3O[C@H]1C[C@H](N)[C@H](O)[C@H](C)O1` [DOXORUBICIN] came in with a concentration for half-maximal inhibition (IC50) of 25 nM.
